# Some of the results follow.
# What was measured:
# Assay in all cases: glycan array binding signal (z-score within array); higher = stronger binding
# Settings in all cases: glycan notation: IUPAC condensed, linker removed
# [1] = biological target: Neu5Ac(a2-6)GlcNAc(b1-4)GlcNAc(b1-4)GlcNAc
# In short: (§1)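 Glycan array binding is given as a within-array Z-score, which can be read as non-binding when negative. The arrays, 3228 of them, came from the Consortium for Functional Glycomics database and were retained only where the protein sequence was available. Z-scores were averaged across arrays of the same protein sequence at different concentrations or buffers and across linkers.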
# Neu5Ac(a2-8)Neu5Ac = biological target: Neu5Ac(a2-8)Neu5Ac
# In short: as §1
# [2] = biological target: Neu5Ac(a2-8)Neu5Ac(a2-3)Gal(b1-3)GalNAc(b1-4)[Neu5Ac(a2-3)]Gal(b1-4)Glc
# In short: as §1
# [3] = biological target: Neu5Ac(a2-8)Neu5Ac(a2-3)Gal(b1-3)GalNAc(b1-4)[Neu5Ac(a2-8)Neu5Ac(a2-3)]Gal(b1-4)Glc
# In short: as §1
# [4] = biological target: Neu5Ac(a2-8)Neu5Ac(a2-3)Gal(b1-4)Glc
# In short: as §1
# [5] = biological target: Neu5Ac(a2-8)Neu5Ac(a2-3)Gal(b1-4)GlcNAc
# In short: as §1
# [6] = biological target: Neu5Ac(a2-8)Neu5Ac(a2-3)[Gal(b1-3)GalNAc(b1-4)]Gal(b1-4)Glc
# In short: as §1
# [7] = biological target: Neu5Ac(a2-8)Neu5Ac(a2-3)[GalNAc(b1-4)]Gal(b1-4)Glc
# In short: as §1
# [8] = biological target: Neu5Ac(a2-8)Neu5Ac(a2-8)Neu5Ac
# In short: as §1
# [9] = biological target: Neu5Ac(a2-8)Neu5Ac(a2-8)Neu5Ac(a2-3)Gal(b1-4)Glc
# In short: as §1
# [10] = biological target: Neu5Ac(a2-8)Neu5Ac(a2-8)Neu5Ac(a2-3)[Gal(b1-3)GalNAc(b1-4)]Gal(b1-4)Glc
# In short: as §1
# [11] = biological target: Neu5Ac(a2-8)Neu5Ac(a2-8)Neu5Ac(a2-3)[GalNAc(b1-4)]Gal(b1-4)Glc
# In short: as §1
# [12] = biological target: Neu5Ac(a2-8)Neu5Ac(a2-8)Neu5Ac(a2-8)Neu5Ac(a2-3)[GalNAc(b1-4)]Gal(b1-4)Glc
# In short: as §1
# [13] = biological target: Neu5Ac(a2-8)Neu5Gc(a2-3)Gal(b1-4)GlcNAc
# In short: as §1
# [14] = biological target: Neu5Ac(b2-6)Gal(b1-4)GlcNAc
# In short: as §1
# Neu5Ac(b2-6)GalNAc = biological target: Neu5Ac(b2-6)GalNAc
# In short: as §1
# [15] = biological target: Neu5Ac9Ac(a2-3)Gal(b1-3)GlcNAc
# In short: as §1
# [16] = biological target: Neu5Ac9Ac(a2-3)Gal(b1-4)GlcNAc
# In short: as §1
# [17] = biological target: Neu5Ac9Ac(a2-6)Gal(b1-4)GlcNAc
# In short: as §1
# [18] = biological target: Neu5Gc(a2-3)Gal(b1-3)GlcNAc
# In short: as §1
# [19] = biological target: Neu5Gc(a2-3)Gal(b1-3)[Fuc(a1-4)]GlcNAc
# In short: as §1
# Neu5Gc(a2-3)Gal(b1-4)Glc = biological target: Neu5Gc(a2-3)Gal(b1-4)Glc
# In short: as §1
# [20] = biological target: Neu5Gc(a2-3)Gal(b1-4)GlcNAc
# In short: as §1
# [21] = biological target: Neu5Gc(a2-3)Gal(b1-4)GlcNAc(b1-3)Gal(b1-4)GlcNAc(b1-2)Man(a1-3)[Neu5Gc(a2-3)Gal(b1-4)GlcNAc(b1-3)Gal(b1-4)GlcNAc(b1-2)Man(a1-6)]Man(b1-4)GlcNAc(b1-4)GlcNAc
# In short: as §1
# [22] = biological target: Neu5Gc(a2-3)Gal(b1-4)[Fuc(a1-3)]GlcNAc
# In short: as §1
# [23] = biological target: Neu5Gc(a2-6)Gal(b1-4)GlcNAc
# In short: as §1
# Neu5Gc(a2-6)GalNAc = biological target: Neu5Gc(a2-6)GalNAc
# In short: as §1
# [24] = biological target: Neu5Gc(a2-8)Neu5Ac(a2-3)Gal(b1-4)GlcNAc
# In short: as §1
# [25] = biological target: Neu5Gc(a2-8)Neu5Gc(a2-3)Gal(b1-4)GlcNAc
# In short: as §1
# [26] = biological target: Neu5Gc(a2-8)Neu5Gc(a2-3)Gal(b1-4)GlcNAc(b1-3)Gal(b1-4)GlcNAc
# In short: as §1
# [27] = biological target: Neu5Gc(a2-8)Neu5Gc(a2-6)Gal(b1-4)GlcNAc
# In short: as §1
# [28] = biological target: Neu5Gc(b2-6)Gal(b1-4)GlcNAc
# In short: as §1
binder,measurement,setting,value
EUL D1A (Oryza sativa) (protein) MFGFGHHHNQAPAAPSDPNQIFKIFCRANENYCLTVRDSAVVLAPVNPKDEHQHWFKDMRFSTKVKDGEGMPAFALVNKATGLAVKHSLGQSHPVKLVPFNPEYEDASVLWTESKDVGKGFRCIRMVNNTRLNLDAFHGDKDHGGVRDGTTVVLWEWCKGDNQSWKILPWGPEAHSSSPGAATACTIGGVPVHTVRVFSAAGEDYCLTVRNGTACLAPKNPRDDYQHWIKDMRHSNKIRDEEGYPAFALVNKVTGEAIKHSTGQGHPVKLVPYNPEYQDESVLWTESKDVGKGFRCIRMVNNIYLNFDAFHGDKDHGGIHDGTEIVLWKWCEGDNQRWKILPWILEQKLISEEDLNSAVDHHHHHH,glycan array binding signal (z-score),[1],0.367
same,glycan array binding signal (z-score),Neu5Ac(a2-8)Neu5Ac,-0.372
same,glycan array binding signal (z-score),[2],0.031
same,glycan array binding signal (z-score),[3],0.293
same,glycan array binding signal (z-score),[4],-0.574
same,glycan array binding signal (z-score),[5],-1.34
same,glycan array binding signal (z-score),[6],0.472
same,glycan array binding signal (z-score),[7],-0.676
same,glycan array binding signal (z-score),[8],0.425
same,glycan array binding signal (z-score),[9],-0.708
same,glycan array binding signal (z-score),[10],-0.062
same,glycan array binding signal (z-score),[11],-0.685
same,glycan array binding signal (z-score),[12],-1.03
same,glycan array binding signal (z-score),[13],0.146
same,glycan array binding signal (z-score),[14],1.65
same,glycan array binding signal (z-score),Neu5Ac(b2-6)GalNAc,-0.626
same,glycan array binding signal (z-score),[15],-0.59
same,glycan array binding signal (z-score),[16],0.165
same,glycan array binding signal (z-score),[17],-0.088
same,glycan array binding signal (z-score),[18],-1.27
same,glycan array binding signal (z-score),[19],0.008
same,glycan array binding signal (z-score),Neu5Gc(a2-3)Gal(b1-4)Glc,-0.225
same,glycan array binding signal (z-score),[20],-0.051
same,glycan array binding signal (z-score),[21],-0.325
same,glycan array binding signal (z-score),[22],0.11
same,glycan array binding signal (z-score),[23],-1.39
same,glycan array binding signal (z-score),Neu5Gc(a2-6)GalNAc,-0.944
same,glycan array binding signal (z-score),[24],-0.726
same,glycan array binding signal (z-score),[25],0.404
same,glycan array binding signal (z-score),[26],-0.888
same,glycan array binding signal (z-score),[27],-0.137
same,glycan array binding signal (z-score),[28],-0.093

# A stretch of the results above:
binder,measurement,setting,value
EUL D1A (Oryza sativa) (protein) MFGFGHHHNQAPAAPSDPNQIFKIFCRANENYCLTVRDSAVVLAPVNPKDEHQHWFKDMRFSTKVKDGEGMPAFALVNKATGLAVKHSLGQSHPVKLVPFNPEYEDASVLWTESKDVGKGFRCIRMVNNTRLNLDAFHGDKDHGGVRDGTTVVLWEWCKGDNQSWKILPWGPEAHSSSPGAATACTIGGVPVHTVRVFSAAGEDYCLTVRNGTACLAPKNPRDDYQHWIKDMRHSNKIRDEEGYPAFALVNKVTGEAIKHSTGQGHPVKLVPYNPEYQDESVLWTESKDVGKGFRCIRMVNNIYLNFDAFHGDKDHGGIHDGTEIVLWKWCEGDNQRWKILPWILEQKLISEEDLNSAVDHHHHHH,glycan array binding signal (z-score),Neu5Ac(a2-8)Neu5Ac,-0.372
same,glycan array binding signal (z-score),[2],0.031

# Source: the supplement of paper PMC8728848
